Assay results taken from publication PMC7110113, “Termination of non‐coding transcription in yeast relies on both an RNA Pol II CTD interaction domain and a CTD‐mimicking region in Sen1” (The EMBO Journal, 2020).
Results are given in words; binding and its absence hold for the method and conditions named. In cells and extracts the contact can be indirect. Some results given as binding are weak or reduced against the parent protein; the word gives no strength. For some of these results: Tags and fused reporters may be left off the sequences shown.

Sequences of proteins named here, by UniProt entry; tags and fusion partners are left off.
UniProt P04050: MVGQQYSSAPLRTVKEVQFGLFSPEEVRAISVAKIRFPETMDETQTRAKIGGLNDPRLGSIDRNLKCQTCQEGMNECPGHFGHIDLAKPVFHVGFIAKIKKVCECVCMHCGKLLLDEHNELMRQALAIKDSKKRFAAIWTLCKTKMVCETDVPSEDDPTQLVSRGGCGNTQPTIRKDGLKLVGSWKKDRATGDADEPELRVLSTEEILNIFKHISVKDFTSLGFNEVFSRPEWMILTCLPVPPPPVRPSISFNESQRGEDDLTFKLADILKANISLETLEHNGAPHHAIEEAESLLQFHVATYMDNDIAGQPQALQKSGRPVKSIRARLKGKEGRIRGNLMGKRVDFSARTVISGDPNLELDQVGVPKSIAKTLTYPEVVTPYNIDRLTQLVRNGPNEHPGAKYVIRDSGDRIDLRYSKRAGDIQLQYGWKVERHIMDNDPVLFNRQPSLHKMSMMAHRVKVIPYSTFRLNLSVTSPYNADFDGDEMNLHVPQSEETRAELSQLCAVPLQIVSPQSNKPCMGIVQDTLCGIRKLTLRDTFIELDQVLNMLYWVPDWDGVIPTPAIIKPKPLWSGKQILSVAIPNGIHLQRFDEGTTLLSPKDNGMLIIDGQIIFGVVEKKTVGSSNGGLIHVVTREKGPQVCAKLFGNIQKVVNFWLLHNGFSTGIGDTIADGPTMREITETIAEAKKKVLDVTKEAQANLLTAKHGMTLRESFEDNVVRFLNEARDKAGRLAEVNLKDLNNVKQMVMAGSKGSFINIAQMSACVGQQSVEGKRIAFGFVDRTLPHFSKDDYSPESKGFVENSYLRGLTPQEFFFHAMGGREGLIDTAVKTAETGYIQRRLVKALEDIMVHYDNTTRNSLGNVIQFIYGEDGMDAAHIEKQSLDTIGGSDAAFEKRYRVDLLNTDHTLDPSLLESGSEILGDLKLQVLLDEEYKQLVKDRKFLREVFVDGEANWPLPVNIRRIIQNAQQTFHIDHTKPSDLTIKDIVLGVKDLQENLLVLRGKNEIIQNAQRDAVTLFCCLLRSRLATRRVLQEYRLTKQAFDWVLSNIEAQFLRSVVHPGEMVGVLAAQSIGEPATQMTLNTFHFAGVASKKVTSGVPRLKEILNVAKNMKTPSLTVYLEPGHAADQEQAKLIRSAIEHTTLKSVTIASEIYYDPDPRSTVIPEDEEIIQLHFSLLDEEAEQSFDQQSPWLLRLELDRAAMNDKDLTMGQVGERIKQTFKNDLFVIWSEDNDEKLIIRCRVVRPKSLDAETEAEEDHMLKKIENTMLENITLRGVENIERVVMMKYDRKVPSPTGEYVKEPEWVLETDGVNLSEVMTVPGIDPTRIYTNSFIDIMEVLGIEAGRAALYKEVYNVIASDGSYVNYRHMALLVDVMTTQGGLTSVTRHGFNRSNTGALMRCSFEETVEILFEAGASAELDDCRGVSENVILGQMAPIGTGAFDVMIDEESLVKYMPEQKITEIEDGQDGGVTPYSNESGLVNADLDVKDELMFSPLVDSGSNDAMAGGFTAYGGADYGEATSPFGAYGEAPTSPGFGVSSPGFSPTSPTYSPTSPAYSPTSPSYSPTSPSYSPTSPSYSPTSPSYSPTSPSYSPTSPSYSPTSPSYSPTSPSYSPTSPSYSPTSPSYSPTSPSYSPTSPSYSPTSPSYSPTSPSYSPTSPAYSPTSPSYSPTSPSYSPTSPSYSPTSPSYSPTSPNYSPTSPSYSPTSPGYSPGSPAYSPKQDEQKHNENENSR

B1: Nab3 (protein, UniProt P38996 1-802)
chain: MSDENHNSDVQDIPSPELSVDSNSNENELMNNSSADDGIEFDAPEEEREAEREEENEEQHELEDVNDEEEEDKEEKGEENGEVINTEEEEEEEHQQKGGNDDDDDDNEEEEEEEEDDDDDDDDDDDDEEEEEEEEEEGNDNSSVGSDSAAEDGEDEEDKKDKTKDKEVELRRETLEKEQKDVDEAIKKITREENDNTHFPTNMENVNYDLLQKQVKYIMDSNMLNLPQFQHLPQEEKMSAILAMLNSNSDTALSVPPHDSTISTTASASATSGARSNDQRKPPLSDAQRRMRFPRADLSKPITEEEHDRYAAYLHGENKITEMHNIPPKSRLFIGNLPLKNVSKEDLFRIFSPYGHIMQINIKNAFGFIQFDNPQSVRDAIECESQEMNFGKKLILEVSSSNARPQFDHGDHGTNSSSTFISSAKRPFQTESGDMYNDDNGAGYKKSRRHTVSCNIFVKRTADRTYAIEVFNRFRDGTGLETDMIFLKPRMELGKLINDAAYNGVWGVVLVNKTHNVDVQTFYKGSQGETKFDEYISISADDAVAIFNNIKNNRNNSRPTDYRAMSHQQNIYGAPPLPVPNGPAVGPPPQTNYYQGYSMPPPQQQQQQPYGNYGMPPPSHDQGYGSQPPIPMNQSYGRYQTSIPPPPPQQQIPQGYGRYQAGPPPQPPSQTPMDQQQLLSAIQNLPPNVVSNLLSMAQQQQQQPHAQQQLVGLIQSMQGQAPQQQQQQLGGYSSMNSSSPPPMSTNYNGQNISAKPSAPPMSHQPPPPQQQQQQQQQQQQQQQQPAGNNVQSLLDSLAKLQK
B2: Sen1 TAP-Nter (domain or fragment, UniProt Q00416 1-975)
chain: MNSNNPDNNNSNNINNNNKDKDIAPNSDVQLATVYTKAKSYIPQIEQVYQGTNPNIQEAKLLGELLQVLAEVPKGTHLFCDPILEPISIFSLTIFSFNEEATATWLKNHFNPILSVCDKCILNFARGKCKMLQHFAIQRHVPHEHVAKFNDIVCQWRVEAVFPILRNISVNDNTGINITNEIETAMYECLCNPHMLRLNKQLKATFEAIFKFFYDTKHRLLDVTNPLSIKTFISGVIFCWCEGSKEENEWSRAFLKDLYSRNFHINLSNLTPDIIEEVYIHILFLQNPANWTEIVVSQFWSRLLPVFNLFDKDVFIEYFQVPKNVESLKKTFKFPLEPIFKMWYNHLSKSYHDKPLDFLLRGLTMFLNKFGSEFWSKIEPFTFHSILDIIFNRDSFPIKLIKIQDNPIVEHQTEVYFQLTGSVTDLLSWTLPFYHALSPSKRIQMVRKVSMAFLRIIANYPSLKSIPKACLMNSATALLRAVLTIKENERAMLYKNDEFETVLLTKTDSRALLNNPLIQDIIIRSASNPNDFYPGLGAASASVATSTMMVLAECIDFDILLLCHRTFKLYSGKPISEIPISTNVLENVTNKIDLRSFHDGPLLAKQLLVSLKNINGLLIVPSNTAVAEAHNALNQKFLLLSTRLMEKFADILPGQLSKILADEDASQGFWSCIFSSDKHLYQAATNILYNTFDVEGRLEGILAILNSNLTVNLKNINVMLQRLINCEFYEPCPRAVRVLMDVVSAFVDPISGVFANFQTLKSQNTEKEFLKFWESCWLFLDTIYKFTLKWASKYDYSELENFTKDTLDLSRSLVDSFREFSDILHDQTKNLLLNVLETFKNMLYWLRLSDEVLLESCVRLIISTSDLAHEKHVKVDDSLVEMMAKYASKAKRFSNKLTEQQASEILQKAKIFNKALTEEVATEAENYRKEKELSRLGKVIDLTDSVPASPSLSPSLSSTIASSSAESRADYLQRK
B3: Nrd1 (protein, UniProt P53617 1-575)
chain: MQQDDDFQNFVATLESFKDLKSGISGSRIKKLTTYALDHIDIESKIISLIIDYSRLCPDSHKLGSLYIIDSIGRAYLDETRSNSNSSSNKPGTCAHAINTLGEVIQELLSDAIAKSNQDHKEKIRMLLDIWDRSGLFQKSYLNAIRSKCFAMDISNNTANTASQQLSLDPKQRSKQILSNLKKSPPLNLNISLPTDLTSTDPAKQQAALFQVIAALQKHFKTLPSHTSVGTVAPPQAHTITEYGSRRERERERERYNSRRNRSRSPPAPFSQPSTGRKDRYPSVAQDQYSIGAPNTTFGTNNHHLYPDELNVSNNPHYRPKPVSYDSTLPPDHIKVYSRTLFIGGVPLNMKEWDLANVLKPFAEVQSVILNNSRKHAFVKVYSRHEAENVLQNFNKDGALPLRTRWGVGFGPRDCCDYQHGYSIIPMHRLTDADKKWSVSAQWGGTSGQPLVTGIVFEEPDIIVGEGVSSKAISQKMPTDSGRNGPRSGKPNKSGSISSISPVPYGNAPLASPPPQQYVQPMMQQPYGYAPNQPLPSQGPAAAAPPVPQQQFDPTAQLNSLMNMLNQQQQQQQQS

Key:
[1] = target: T1, TAP-Sen1ΔNter (S. cerevisiae) (UniProt Q00416); assay: co-IP; TAP-Sen1 (wt or ΔNter) as the bait, expressed from pGAL in galactose; IgG Sepharose; extracts treated with RNaseA before immunoprecipitation; blots with antibodies against CTD forms
T1 sequence: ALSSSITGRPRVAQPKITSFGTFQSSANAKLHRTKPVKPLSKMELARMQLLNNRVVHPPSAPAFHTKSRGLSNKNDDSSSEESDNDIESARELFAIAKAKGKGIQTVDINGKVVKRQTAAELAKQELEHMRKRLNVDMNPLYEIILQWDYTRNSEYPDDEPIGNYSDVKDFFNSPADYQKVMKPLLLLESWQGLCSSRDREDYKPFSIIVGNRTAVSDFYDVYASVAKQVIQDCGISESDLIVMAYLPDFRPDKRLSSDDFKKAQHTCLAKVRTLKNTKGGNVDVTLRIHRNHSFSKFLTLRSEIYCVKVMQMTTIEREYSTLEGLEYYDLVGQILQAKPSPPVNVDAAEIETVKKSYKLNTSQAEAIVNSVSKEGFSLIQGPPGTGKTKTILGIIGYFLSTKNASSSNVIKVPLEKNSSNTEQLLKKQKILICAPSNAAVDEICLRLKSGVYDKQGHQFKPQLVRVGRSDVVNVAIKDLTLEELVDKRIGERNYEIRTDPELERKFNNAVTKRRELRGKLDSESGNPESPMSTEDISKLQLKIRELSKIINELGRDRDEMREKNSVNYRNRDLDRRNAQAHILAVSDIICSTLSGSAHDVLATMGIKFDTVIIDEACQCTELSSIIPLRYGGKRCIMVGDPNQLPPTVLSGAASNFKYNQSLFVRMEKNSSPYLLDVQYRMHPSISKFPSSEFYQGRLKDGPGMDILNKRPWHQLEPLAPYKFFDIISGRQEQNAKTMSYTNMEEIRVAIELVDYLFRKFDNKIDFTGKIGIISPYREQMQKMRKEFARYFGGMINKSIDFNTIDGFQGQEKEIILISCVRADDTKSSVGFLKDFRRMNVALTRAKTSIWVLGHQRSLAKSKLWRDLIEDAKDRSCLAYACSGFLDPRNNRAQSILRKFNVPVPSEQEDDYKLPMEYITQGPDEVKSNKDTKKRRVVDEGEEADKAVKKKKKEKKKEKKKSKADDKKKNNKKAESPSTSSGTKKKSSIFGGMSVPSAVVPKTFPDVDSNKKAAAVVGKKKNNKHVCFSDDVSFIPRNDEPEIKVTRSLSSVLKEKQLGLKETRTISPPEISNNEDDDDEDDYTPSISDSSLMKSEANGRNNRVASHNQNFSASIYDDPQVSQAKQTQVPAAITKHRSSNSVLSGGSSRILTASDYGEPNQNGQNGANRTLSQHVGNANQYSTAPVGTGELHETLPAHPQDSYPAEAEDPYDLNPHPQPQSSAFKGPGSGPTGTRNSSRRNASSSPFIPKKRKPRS

TAP-Sen1 (S. cerevisiae) = TAP-Sen1 (S. cerevisiae) (UniProt Q00416); assay: as above
Nrd1-TAP (S. cerevisiae) = target: T2, Nrd1-TAP (S. cerevisiae) (UniProt P53617); assay: co-IP; TAP-tagged Nrd1 (wt or ∆CID) as bait on IgG Fast Flow Sepharose from yeast extracts; lysis buffer 10 mM sodium phosphate pH 7, 200 mM sodium acetate, 0.25% NP-40, 2 mM EDTA, 1 mM EGTA, 5% glycerol; Sen1 detected by blot (Fig 1A, 1C, EV3E)
T2 sequence: B3 chain

[2] = target: Sen1ΔNIM-HA (S. cerevisiae) (UniProt Q00416); assay: co-IP; HA-tagged Sen1 (wt or ΔNIM) as the bait; anti-HA 12CA5 and Protein A beads; extracts treated with RNaseA prior to immunoprecipitation
[3] = target: T3, His6-GST-tagged Sen1 Cter (S. cerevisiae) (UniProt Q00416); assay: pull-down; E. coli extract with His6-GST-Sen1 Cter (wt or ∆NIM) incubated with glutathione sepharose, then mixed with yeast extract expressing Sen1 TAP-Nter; extracts treated with 50 μg/ml RNase A; washed with lysis buffer (10 mM sodium phosphate pH 7, 200 mM sodium acetate, 0.25% NP-40); eluted with glutathione
T3 sequence: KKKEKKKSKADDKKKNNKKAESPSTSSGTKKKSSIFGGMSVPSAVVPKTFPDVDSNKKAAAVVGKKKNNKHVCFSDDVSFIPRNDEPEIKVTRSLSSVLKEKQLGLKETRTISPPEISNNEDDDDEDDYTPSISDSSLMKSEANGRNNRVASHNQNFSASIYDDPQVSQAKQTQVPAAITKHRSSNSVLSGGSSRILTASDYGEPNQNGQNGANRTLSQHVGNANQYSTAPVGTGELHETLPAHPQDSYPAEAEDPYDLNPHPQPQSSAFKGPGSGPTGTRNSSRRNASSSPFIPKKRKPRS

[4] = target: HA-tagged Sen1 (S. cerevisiae) (UniProt Q00416); assay: co-IP; HA-tagged Sen1 (wt or ∆NIM) as bait, anti-HA 12CA5 and Protein A Dynabeads, 4°C; extracts treated with RNaseA before immunoprecipitation; Nrd1 and Nab3 detected by blot (Fig 1D)

Molecule | binding [1] | binding (TAP-Sen1 (S. cerevisiae)) | other results
RNAPII largest subunit Rpb1 with S7-phosphorylated CTD (from UniProt P04050 1-1733) | binds | binds | –
RNAPII largest subunit Rpb1 with T4-phosphorylated CTD (from UniProt P04050 1-1733) | binds | binds | –
RNAPII largest subunit Rpb1 with unphosphorylated CTD (from UniProt P04050 1-1733) | binds | binds | –
Sen1 (from UniProt Q00416 1-2231) | – | – | binding (Nrd1-TAP (S. cerevisiae)): binds
B1 | – | – | binding [2]: no binding
B2 | – | – | binding [3]: binds
B3 | – | – | binding [4]: binds
